Results from PubChem BioAssay AID2685 (National Center for Advancing Translational Sciences (NCATS), 2010).
The list shows a part of the results. Further columns of the screen follow, without active or inactive calls. The list favours compounds with an active or inconclusive main result. The note in brackets gives the kind of curve behind each potency; many fits are weak.

Assay: qHTS Assay for Lipid Storage Modulators in Drosophila S3 Cells;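 on cell number change: cells counted by Cell Tracker Red CMTPX staining in the red channel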
Conditions: BODIPY lipid droplet fluorescence, 18-24 h; for cell number change: measured here: cell count max response, cells fed with added oleic acid
Procedure, shortened: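 Drosophila S3 cells got compounds at several concentrations plus oleic acid (400 uM solution). Laser-scanning cytometry with 488 nm excitation read lipid droplets at 500-530 nm and cells at 575-640 nm. Percent activity was relative to 20 uM Triacsin C.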

[1] = measured here: cell number channel AC50, cells fed with added oleic acid
[2] = measured here: lipid fluorescence (Fed channel) AC50, cells fed with added oleic acid

SMILES | cell number change [%] | AC50 [1] | AC50 [2]
COc1ccc(C(=O)NC(=O)COC(=O)c2ccc(C)o2)cc1 | -46.6 | 32.6 µM [falling, single point] | 
Fc1ccc(CCNC(=S)Nc2ccc(F)c(Cl)c2)cc1 | -52.9 | 29.1 µM [falling, single point] | 
CC(C)CCNC(=O)C(C)N(Cc1ccc(F)cc1)C(=O)c1ccc(CN2CCCCC2)o1 (configuration not stated) |  |  | 2.06 µM [falling, partial curve]
CCc1ccccc1NC(=O)c1cc(-c2cccs2)on1 | 23.8 |  | 13 µM [rising, partial curve]
Cn1c(N)c(C(=O)COC(=O)COc2ccc(Cl)cc2)c(=O)n(C)c1=O | -23.8 |  | 4.61 µM [rising, full curve]
CCOc1ccc(C(=O)N2CCN(c3ccccn3)CC2)cc1 | -7.41 |  | 
Cc1ccc2c(c1)cc(CN(Cc1ccco1)S(=O)(=O)c1ccccc1)c1nnnn12 | 64.1 | 18.4 µM [rising, partial curve] | 1.3 µM [rising, single point]
COc1ccccc1NC(=O)COn1nnc2ccc(S(=O)(=O)N3CCOCC3)cc21 | -12.6 |  | 
COc1ccc(C2N(c3cc(Cl)ccc3OC)C(=O)C3CCCN32)cc1 (configuration not stated) | 43.5 | 0.13 µM [rising, full curve, poor fit] | 16.4 µM [rising, partial curve]
COc1ccc(NC(=O)c2cc3ccccc3o2)cc1 | -2.88 |  | 0.00461 µM [rising, full curve, poor fit]
COc1cccc(CNc2ccc(C)c(Cl)c2)c1 | -11.3 |  | 
CC(OCCN(C)C)C(=O)C12CC3CC(CC(C3)C1)C2 (configuration not stated) | -42 | 11.6 µM [falling, partial curve, poor fit] | 
C=CCNC(=O)/C(C#N)=C/c1ccc(OS(=O)(=O)c2ccc(C)cc2)c(OC)c1 | -31.2 | 23.1 µM [falling, single point] | 2.31 µM [rising, single point]
COc1ccc(N2CCN(C(C)C(=O)N(C)Cc3ccccc3)CC2)cc1 (configuration not stated) | 5.71 |  | 
COc1ccc(CNC(=O)CCC(=O)c2ccc(C)cc2)cc1OC | 31 |  | 
CCCCOC(=O)C1CCC[C@@H](C)N1 (some centres not stated) | 10.5 |  | 
O=C(CSc1nccc(-c2ccc(Br)cc2)n1)NCCc1ccccc1 | 28.8 | 2.59 µM [rising, full curve, poor fit] | 16.4 µM [rising, partial curve]
CCOC(=O)C1CCN(CC(=O)Nc2c(C(=O)OC)[nH]c3cccc(Cl)c23)CC1 | -20.6 |  | 0.206 µM [rising, full curve, poor fit]
COCc1[nH][nH]c(=O)c1C=Nc1ccc(F)cc1F | -40.4 | 0.92 µM [falling, full curve] | 0.0206 µM [falling, full curve]
CCOCCc1nnc(NC(=O)Cc2c(F)cccc2Cl)s1 | 114 | 13 µM [rising, partial curve] | 29.1 µM [rising, single point]
O=C(N/C(=C\c1ccc2c(c1)OCO2)C(=O)N1CCOCC1)c1cccs1 |  |  | 0.58 µM [rising, single point]

SMILES | cell number change [%] | AC50 [1] | AC50 [2]
COc1ccc(NC(=O)CSc2nccn2Cc2ccco2)c(OC)c1 | -17.9 |  | 
COc1ccc(Br)cc1C(=O)N/N=C/c1cccnc1 | 18.7 |  | 29.1 µM [rising, single point]
O=C(NCCC(=O)N(CCc1ccccc1)Cc1ccccc1)c1ccccc1Cl | 120 | 11.6 µM [rising, partial curve] | 
Cc1nc(N2CCOCC2)c2c(C)c(C(=O)Nc3ccc(C(F)(F)F)cc3)sc2n1 | -44.9 | 14.6 µM [falling, partial curve] | 25.9 µM [falling, single point]
NC(=O)NC(=O)CN1C(=O)NC2(CCOc3ccccc32)C1=O (configuration not stated) | 9.91 |  | 3.66 µM [rising, partial curve]
O=C(Nc1cc(Br)ccc1O)c1cnn2c(C(F)F)cc(C3CC3)nc12 |  |  | 6.51 µM [rising, partial curve]
COc1cc(CNCCCN2CCOCC2)ccc1OCC(=O)Nc1cccc(C(F)(F)F)c1 | -9.75 |  | 
Cc1ccc2cc(CN(Cc3ccc4c(c3)OCO4)Cc3nnnn3Cc3ccco3)c(=O)[nH]c2c1C |  | 0.651 µM [rising, single point] | 2.06 µM [rising, partial curve]
Cc1c(C(=O)O)sc(S(=O)(=O)N2CCN(C(=O)Cc3ccccc3)CC2)c1C(=O)O | -3.9 |  | 29.1 µM [rising, single point]
Cc1ccc(-n2c(SCC(=O)NCC3CCCO3)nc3n[nH]c(C)c3c2=N)cc1Cl (configuration not stated) | 166 | 1.46 µM [rising, full curve] | 1.46 µM [rising, full curve]
COC(=O)c1c(O)cc(C(C)(C)C)n(-c2ccc(F)cc2)c1=O | -40.7 | 29.1 µM [falling, single point] | 29.1 µM [falling, single point]
Cc1ccc(N(C(=O)Cn2nnc(-c3ccc(C)o3)n2)C(C(=O)NC2CCCC2)c2ccco2)cc1 (configuration not stated) | -65.7 | 18.4 µM [falling, partial curve] | 23.1 µM [falling, single point]
Cc1ccc(CN=C2Nc3ccccc3CS2)cc1 | -20.7 |  | 29.1 µM [falling, single point]
C#CCOCCOCCOCCNc1nc(N2CCN(C(=O)CCCCCCCCCCNC(=O)[C@@H](CCSC)n3cc(CCO)nn3)CC2)nc(N2CCN(C(=O)CCCCCCCCCCNC(=O)[C@@H]([C@H](C)O)n3cc(C)nn3)CC2)n1 | 5.94 |  | 
COC(=O)N/N=C/c1cc(C)n(-c2ccc(F)cc2)c1C | 12.3 |  | 6.51 µM [rising, single point]
Cc1cc(Br)ccc1NC(=S)N1CCOCC1 | 19.2 |  | 11.6 µM [rising, single point]
CCc1cc2ccccc2nc1SCC(=O)Nc1cc(OC)c(OC)cc1C(=O)O | 7.32 |  | 2.91 µM [falling, partial curve]
CSc1ccc(/C=N/n2c(C)cc(C)cc2=O)cc1 | 9.49 |  | 0.146 µM [falling, full curve, poor fit]
Cc1cc(C=O)c(O)cc1O | 36.2 |  | 3.26 µM [rising, partial curve]
CCc1cccc2c(C(=O)C(NC(C)CC)c3ccccc3)c[nH]c12 (configuration not stated) | 14.9 |  | 1.46 µM [rising, partial curve]
CCOc1ccc(CCNS(=O)(=O)c2ccc3c(c2)N(C(C)=O)CCO3)cc1OCC | 9.85 |  | 

SMILES | cell number change [%] | AC50 [1] | AC50 [2]
O=C(COC(=O)c1ccc(F)c(S(=O)(=O)N2CCCCC2)c1)NCc1ccc(F)cc1 | -7.58 |  | 
Cc1cc(C(=O)NNc2ccc(C(C)C)cc2)n(C(C)(C)C)n1 | -0.543 |  | 
CCN(CC(=O)Nc1ccccc1C(F)(F)F)C(=O)c1ccc(N2C(=O)CCC2=O)cc1 | 34.6 |  | 29.1 µM [falling, single point]
Cc1cc(=O)[nH]c2c1c(=O)[nH]n2C1CC(C)N(C)CC1C (configuration not stated) | -11 | 0.731 µM [falling, single point] | 32.6 µM [falling, single point]
CCc1cc(C(=O)N2CCN(S(=O)(=O)c3ccccc3F)CC2)sc1C | -14.3 |  | 
CCOc1ccc(Nc2nc3c(C)cccc3cc2C#N)cc1 | 1.82 |  | 
Cc1ccc(-c2nnc(SCC(=O)N3CCN(c4ccccc4)CC3)o2)cc1 | -8.99 |  | 29.1 µM [rising, single point]
Cc1ccc(S(=O)(=O)NCC(=O)OCc2nnc(-c3ccccc3)o2)cc1C | 51.1 | 8.2 µM [rising, partial curve, poor fit] | 
CCC(=O)Nc1ccc(S(=O)(=O)Nc2ncccn2)cc1 | 21.8 |  | 2.31 µM [falling, full curve, poor fit]
O=C(NCc1nc2ccccc2[nH]1)C1=C[C@@H](C2CC2)C[C@@H](OCc2ccc(CO)cc2)O1 | -3.77 |  | 6.51 µM [rising, single point]
CCNC(=O)COc1cc(C)c(Cl)c(C)c1 | 8.47 |  | 6.51 µM [rising, partial curve]
CCCN1C(=O)/C(=C/c2nc3ccccc3c(=O)[nH]2)c2cc(C)ccc21 | 22 |  | 
Cc1nc2ccccc2c2c1C(=O)N(Cc1cccnc1)C2=O |  |  | 1.03 µM [rising, full curve]
O=C(CNS(=O)(=O)c1cccs1)NCc1ccc(F)cc1 | -22.3 | 3.26 µM [rising, single point] | 3.26 µM [rising, single point]
Nn1c(SCc2cc([N+](=O)[O-])cc3c2OCOC3)nnc1-c1cccnc1 | 2.22 | 1.46 µM [rising, partial curve, poor fit] | 
CN1CCC(OC(=O)c2cccc(Br)c2)CC1 | -64.5 | 2.06 µM [falling, full curve] | 18.4 µM [falling, partial curve]
O=C(CSc1nnc(CNC(=O)c2c(F)cccc2Cl)o1)NCc1ccc(F)cc1 | -18.4 |  | 29.1 µM [falling, single point]
Cc1cc(N/N=C/c2ccc(O)c(C)c2O)nc(-c2ccccc2O)n1 | -65 | 29.1 µM [falling, single point] | 0.731 µM [falling, single point]
C#CCOCCOCCOCCNc1nc(N2CCN(C(=O)C(Cc3cc4ccccc4[nH]3)n3cc(C(N)Cc4ccc(O)cc4)nn3)CC2)nc(N2CCN(C(=O)C(CCC(=O)O)n3cc(C(N)C(C)CC)nn3)CC2)n1 (configuration not stated) | 5.68 |  | 0.291 µM [rising, full curve, poor fit]

Of the compounds above, these have a CF3 group:
SMILES | cell number change [%] | AC50 [1] | AC50 [2]
Cc1nc(N2CCOCC2)c2c(C)c(C(=O)Nc3ccc(C(F)(F)F)cc3)sc2n1 | -44.9 | 14.6 µM [falling, partial curve] | 25.9 µM [falling, single point]
COc1cc(CNCCCN2CCOCC2)ccc1OCC(=O)Nc1cccc(C(F)(F)F)c1 | -9.75 |  | 
CCN(CC(=O)Nc1ccccc1C(F)(F)F)C(=O)c1ccc(N2C(=O)CCC2=O)cc1 | 34.6 |  | 29.1 µM [falling, single point]
